{
  "source": "patent US7795218B2",
  "about": "“ADP-ribosyl transferase fusion variant proteins” (priority 2003, dated 2010)",
  "key": {"HUVEC [1]": {"test_system": "HUVEC", "experiment": "HUVEC tube formation on ECmatrix", "type": "cell-based, human", "conditions": "10 μg/mL or 50 μg/mL", "procedure": "FIG. 31 illustrates that SEQ ID NO: 10 decreases tube formation in HUVEC, wherein HUVEC were seeded on solidified ECmatrix™ without (Control) or with 10 μg/mL or 50 μg/mL of SEQ ID NO: 10 or the angiogenesis inhibitor Tranilast, cells were also incubated with 10 μM or 50 μM of the ROCK inhibitor Fasudil, capillary-like structures were visualized between 6 h to 20 h incubation, and wherein in (A) photographs were taken under phase contrast inverted microscope at 40× magnification and (B) quantification of tube length was reported as percentage of the length from untreated cells SEM (photographs and quantification are representative of at least 2 independent experiments analyzed in triplicate; symbols * and ** represent respectively significant (p<0.05) and highly significant (p<0.01) difference from untreated cells);\nReferring to FIG. 31, to evaluate the importance of the signalling pathway Rho-Rock in angiogenesis, Transilat (10 μg/ml and 50 μg/ml) is used as a positive control. Transilat is known to block one of the principal angiogenesis routes i.e. the VEGF pathway. The binding of VEGF to VEGF-R stimulates tyrosine auto-phosphorylation of one of the receptors which initiates a signalling pathway, in part through PKC. Tranilast acts by inhibiting VEGF dependent PKC activation. […]"}, "HUVEC [2]": {"test_system": "HUVEC", "experiment": "HUVEC proliferation (Alamar blue)", "type": "cell-based, human", "conditions": "up to 100 μg/mL (or μM), 24 hr or 72 hr", "procedure": "FIG. 32 illustrates that SEQ ID NO: 10 affects HUVEC proliferation at high concentration, wherein HUVEC were plated in 96 wells (collagen 1-coated) and incubated during 24 h or 72 with 0 to 100 μg/mL (or μM) of SEQ ID NO: 10, Fasudil or Tranilast, cells from 4 h and 24 h were washed out and replenished with fresh media containing no test compounds and left until 72 hours, and at the end of treatment (72 hours) Alamar blue was added, incubated for 4 hours and fluorescence was measured. Proliferation is represented in a graph as a percentage of that from untreated cells (0 μg/mL)±S.D. and represents 2 independent studies analyzed in triplicate;\nGiven that SEQ ID NO: 10 efficiently ribosylates RhoA and therefore inhibits its activity under these conditions, it appears that the proliferation of HUVEC in this system, along with this part of the angiogenic sequence, proceeds independently of RhoA activity. In contrast, HUVEC proliferation seems to depend on Rho kinase activity as well as on the activity of those targets, possibly including protein kinase C, blocked by Tranilast."}},
  "note": "For some assays here: At least one structure is not confirmed: it was looked up by name or label, or the drawing left a doubt. Some entries share one result that the patent states for a list of compounds.",
  "data": [
    {"smiles": "COc1ccc(/C=C/C(=O)Nc2ccccc2C(=O)O)cc1OC", "note": "[Tranilast]", "values": [
      {"measurement": "decrease of tube length", "setting": "HUVEC [1]", "result": "at least 51%"},
      {"measurement": "HUVEC proliferation", "setting": "HUVEC [2]", "result": "significant (p<0.01) reductions in HUVEC cell proliferation"}
    ]}
  ]
}
